Among the data in patent publication US8338404B2, “Composition and method for reducing allergen” (Kyowa Hakko Bio Co., Ltd., priority 2007, dated 2012) are Appearance values, retold here.

The data set is described as follows: Appearance / color change of the treated clothes. The format is physicochemical. The note with it: 5% treatment solution, dried at 110° C. for 2 minutes.

Regarding `CC(=O)N1C[C@H](O)C[C@H]1C(=O)O` [N-acetyl-trans-4-hydroxy-L-proline], the Appearance result runs as follows: (PET cloth) “White”; (cotton broadcloth) “White”.
Take `O=C(OC[C@H]1O[C@@H](OC(=O)c2cc(O)c(O)c(OC(=O)c3cc(O)c(O)c(O)c3)c2)[C@H](OC(=O)c2cc(O)c(O)c(OC(=O)c3cc(O)c(O)c(O)c3)c2)[C@@H](OC(=O)c2cc(O)c(O)c(OC(=O)c3cc(O)c(O)c(O)c3)c2)[C@@H]1OC(=O)c1cc(O)c(O)c(OC(=O)c2cc(O)c(O)c(O)c2)c1)c1cc(O)c(O)c(OC(=O)c2cc(O)c(O)c(O)c2)c1` [tannic acid]: the Appearance result was “Light brown” (PET cloth) and “Light brown” (cotton broadcloth).
